Assay results: US20220257665A1, “APPLICATION OF […] AGENTS TO STEM CELL DERIVED CARDIOMYOCYTES AND USES THEREOF” (priority 2019, published 2022)

Tests used:
[1] = cited from earlier work
SCN5A = conditions: 5 days exposure to 0.1 μM and 1 μM amiodarone (FIG. 8)

SMILES	typical plasma concentrations in vivo [1] [µg/mL]	effect on the expression of SCN5A (SCN5A)
CCN(CC)CC(=O)Nc1c(C)cccc1C [Lidocaine, lidocaine]	2 to 6	–
CCCCc1oc2ccccc2c1C(=O)c1cc(I)c(OCCN(CC)CC)c(I)c1 [amiodarone]	0.5 to 2.5	no effect
